Positions count from the first letter of the chain named. The exact form of at least one protein or probe is not confirmed. For part of these data: A negative result means that nothing was seen under these conditions. For part of these data: Weaker means in comparison with the reference protein, sequence or condition of that experiment. For part of these data: Where a protein sequence is shown, tags need not be part of it.
Key:
Assay in all cases: EMSA
[1] = biological target: T1, POU Q306A (Homo sapiens) (UniProt P14859); settings: 100 ng protein, text: severely impaired or abolished; EMSA: 20 mM HEPES pH 7.9, 2 mM MgCl2, 10% glycerol, 2 mM DTT, 36 ng poly(dI-dC), 20 min room temperature; 5% native gel, 0.5x TBE, 4 C; recombinant protein; protein details: as P1; label: 5'-32P
T1 sequence (looked up, limits assumed): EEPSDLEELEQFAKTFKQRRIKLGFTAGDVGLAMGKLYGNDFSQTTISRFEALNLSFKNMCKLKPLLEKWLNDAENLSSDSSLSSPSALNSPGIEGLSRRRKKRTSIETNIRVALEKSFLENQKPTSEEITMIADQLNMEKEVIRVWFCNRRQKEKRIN

[2] = biological target: T2, POU RQE-AAA triple mutant R299A,Q306A,E330A (Homo sapiens) (UniProt P14859); settings: 100 ng protein, text: severely impaired or abolished; EMSA: 20 mM HEPES pH 7.9, 2 mM MgCl2, 10% glycerol, 2 mM DTT, 36 ng poly(dI-dC), 20 min room temperature; 5% native gel, 0.5x TBE, 4 C; recombinant protein; protein details: as P1; label: 5'-32P
T2 sequence (looked up, limits assumed): T1 sequence (looked up, limits assumed) with R20A, E51A

[3] = tested on: POU2F1 (OCT-1) POU DNA-binding domain, wild type + PER2(683-872); settings: no super-shifted ternary PER2(683-872):POU:DNA species in either order of addition; EMSA: 20 mM HEPES pH 7.9, 2 mM MgCl2, 10% glycerol, 2 mM DTT, 36 ng poly(dI-dC), 20 min room temperature; 5% native gel, 0.5x TBE, 4 C; recombinant protein; label: 5'-32P

Sequence: GCTATGGCCTATGCATATGAAGCCTTTATT (double strand) [ESR1 promoter POU2F1 element probe (-56 to -42)]
- binding result [1]: binds more weakly
- binding result [2]: binds more weakly
- binding result [3]: no binding

From PMC13280575, “The PER2:BRCA1:POU2F1(OCT-1) ternary complex represents a multi-component scaffold model for circadian gene regulation”
